Publication PMC11344771
These are yes or no findings as the source states them, for the method shown. Some entries that bind do so weakly or less than the wild type.

By UniProt entry, the sequences of proteins in these tests, tags left out. Residues count along the entry.
UniProt O08816, residues 142-273: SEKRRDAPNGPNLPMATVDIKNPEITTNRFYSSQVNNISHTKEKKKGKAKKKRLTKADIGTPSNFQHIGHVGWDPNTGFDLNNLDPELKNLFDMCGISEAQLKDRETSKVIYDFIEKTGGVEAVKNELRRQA
UniProt P60953: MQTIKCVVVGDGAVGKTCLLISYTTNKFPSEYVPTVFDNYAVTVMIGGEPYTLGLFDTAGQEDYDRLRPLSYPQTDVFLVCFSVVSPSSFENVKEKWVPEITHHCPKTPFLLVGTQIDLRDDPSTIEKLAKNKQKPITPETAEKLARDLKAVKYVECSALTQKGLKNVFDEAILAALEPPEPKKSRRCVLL

Biological target: N-WASP BR-GBD_(142-273) (Rattus norvegicus) (UniProt O08816)
Experiment: fluorescence stopped-flow; association: 1 µM mGppNHp-bound Cdc42 mixed with 1 µM N-WASP BR-GBD; 30 mM Tris-HCl, 10 mM K2HPO4/KH2PO4 pH 8.5, 5 mM MgCl2, 3 mM DTT, 25 °C; both purified

Cdc42 bound to a non-hydrolysable GTP analogue (Cdc42_(GppNHp)) (from UniProt P60953 1-191)
binding: binds
